According to PMC12520464:
No constants are given. Whether binding was seen depends on the method and setting. Binding seen in cells or lysates may run through a third protein. A yes stands for co-enrichment or nearness to the bait. Other partners may have been found.

Target: T1, ARG1 (arginase-1), endogenous (human (endogenous in HCT116 and RKO)) (UniProt P05089)
T1 sequence: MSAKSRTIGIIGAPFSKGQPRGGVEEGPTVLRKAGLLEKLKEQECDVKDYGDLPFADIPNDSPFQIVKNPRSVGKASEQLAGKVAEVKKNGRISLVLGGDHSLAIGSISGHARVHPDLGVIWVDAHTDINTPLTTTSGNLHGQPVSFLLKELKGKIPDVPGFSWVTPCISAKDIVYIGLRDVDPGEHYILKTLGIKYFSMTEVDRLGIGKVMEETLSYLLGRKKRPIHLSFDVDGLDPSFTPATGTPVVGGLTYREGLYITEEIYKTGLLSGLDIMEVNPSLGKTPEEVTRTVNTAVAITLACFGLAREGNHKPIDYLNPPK
Assay: affinity purification with mass spectrometry; immunoprecipitation with anti-ARG1 antibody from lysate of HCT116 cells treated with BHB for 48 h; gel bands, trypsin, LC-MS (Q-Exactive)

solute carrier family 3 member 2 (SLC3A2), endogenous (from UniProt P08195 1-529)
binding: binds
